{"source": "patent US20190365666A1", "about": "“METHODS FOR PREVENTION AND TREATMENT OF CARDIOMETABOLIC SYNDROME AND COMPOSITIONS USED THEREIN” (OmniActive Health Technologies Limited, priority 2015, published 2019)", "test_system": "BCO2, TNF-α, PPAR-γ, Nrf-2, NFkB, IRS-1, HO-1 in liver tissue", "assay": "Western blot of liver tissue markers in HFD treated rats", "format": "in vivo, Sprague Dawley rats", "settings": "P<0.001", "protocol": "After a one week period of adaptation to laboratory conditions, the animals were randomly divided into four equal groups: 1) Control (n=7): untreated rats were allowed free access to a standard diet; 2) BCX Group, rats were fed a standard diet supplemented with beta-cryptoxanthin (n=7) 2.5 mg/kg; 3) HFD Group (high-fat diet; 42% of calories from fat; n=7): rats were fed a high-fat diet 4) HFD+BCX Group, rats were fed a high-fat diet (42% of calories from fat; n=7) supplemented with beta-cryptoxanthin 2.5 mg/kg. 5% suspension of beta-cryptoxanthin was dissolved in corn oil. At the end of the experiment, all rats were sacrificed by cervical dislocation. Blood samples were taken from rats in the morning upon overnight fasting for biochemical analyses and their visceral fat and liver samples were removed and weighed after sacrificing the animals. […]\nAntibodies against NF-κB, TNF-α, Nrf2, HO-1, PPAR-γ, and p-IRS1, (Abcam (Cambridge, UK) were diluted (1:1000) in the same buffer containing 0.05% Tween-20. Protein loading was controlled sing a monoclonal mouse antibody against β-actin (A5316; Sigma). Bands were analyzed densitometrically using an image analysis system (Image J; National Institute of Health, Bethesda, USA). (FIG. 12)", "note": "For at least one compound, name, drawing or mass did not settle the structure.", "data": [{"smiles": "CC1=C(/C=C/C(C)=C/C=C/C(C)=C/C=C/C=C(C)/C=C/C=C(C)/C=C/C2=C(C)C[C@@H](O)CC2(C)C)C(C)(C)CCC1", "note": "[BCX, beta-cryptoxanthin]", "values": [{"measurement": "enhancement of liver Nrf2 level", "result": "1.1.43 fold"}]}]}
